Source: patent US20060035905A1, “Formulations of phosphodiesterase 5 inhibitors and methods of use” (Becton, Dickinson and Company, priority 2004, published 2006)
The name of at least one read-out is uncertain.

## sildenafil mesylate
ID 1.5 mm
  tmax (time to Cmax): ca. 5 min
SC
  time to Cmax: ~7 min
